Data as given in PubChem BioAssay AID1259405 (NCATS, 2018)

Assay: 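Knock-downs that lift recombinant protein yield in hamster ovary cells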 (primary screen)
Cell system: Chinese hamster CHO-K1 ovary cells with stable secreted eGFP expression
Knock-down reagent: single siRNA against mouse genes, 0.8 pmol siRNA per well (2 µl of 400 nM stock)
Timing: 3 days
Measured: 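Percent of the per-plate non-targeting control median for intracellular GFP per well by laser scanning cytometry and for cell viability by ATP luminescence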
Scale: GFP, % of control: higher = more GFP per well, higher productivity; viability (ATP), % of control: higher = more viable cells (more ATP)
Rule for the call: 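a knock-down is called active if GFP reaches 120% or more of non-targeting control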
The deposit covers about 50,000 reagents; shown is an unselected part. About 4,000 of all reagents (8%) were called active. 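Mouse siRNA library applied to hamster cells; one well for each siRNA.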 Unmarked entries are inactive. No sequences are given here.

Galns [SID363569754] → GFP, % of control = 73.6; viability (ATP), % of control = 60.7
Galns [SID363576794] → GFP, % of control = 73.8; viability (ATP), % of control = 76.1
Galns [SID363578202] → GFP, % of control = 97.9; viability (ATP), % of control = 76.1
Rab7 [SID363570091] → GFP, % of control = 101; viability (ATP), % of control = 136
Rab7 [SID363576427] → GFP, % of control = 156 (active); viability (ATP), % of control = 102
Rab7 [SID363579595] → GFP, % of control = 114; viability (ATP), % of control = 108
Rab7 [SID363589736] → GFP, % of control = 118; viability (ATP), % of control = 92.7
Rab7 [SID363589737] → GFP, % of control = 121 (active); viability (ATP), % of control = 85.8
Rab7 [SID363589755] → GFP, % of control = 114; viability (ATP), % of control = 89.1
Jup [SID363572718] → GFP, % of control = 141 (active); viability (ATP), % of control = 112
Jup [SID363577998] → GFP, % of control = 87.9; viability (ATP), % of control = 98.2
Jup [SID363582222] → GFP, % of control = 94.2; viability (ATP), % of control = 101
B230317F23Rik [SID363546694] → GFP, % of control = 71.2; viability (ATP), % of control = 62.9
B230317F23Rik [SID363548450] → GFP, % of control = 74.1; viability (ATP), % of control = 101
B230317F23Rik [SID363560628] → GFP, % of control = 97.5; viability (ATP), % of control = 72.9
B230219D22Rik [SID363546707] → GFP, % of control = 78.1; viability (ATP), % of control = 58
B230219D22Rik [SID363548463] → GFP, % of control = 70; viability (ATP), % of control = 81.4
B230219D22Rik [SID363560641] → GFP, % of control = 91.8; viability (ATP), % of control = 85.8
Hras [SID363570203] → GFP, % of control = 78.5; viability (ATP), % of control = 87.3
Hras [SID363576539] → GFP, % of control = 122 (active); viability (ATP), % of control = 92.2
Hras [SID363579707] → GFP, % of control = 86.5; viability (ATP), % of control = 64.4
Usp17lc [SID363547352] → GFP, % of control = 53.7; viability (ATP), % of control = 78.9
Usp17lc [SID363558121] → GFP, % of control = 28.6; viability (ATP), % of control = 28.9
Usp17lc [SID363559879] → GFP, % of control = 79.3; viability (ATP), % of control = 55.4
Haus8 [SID363543962] → GFP, % of control = 93.2; viability (ATP), % of control = 37
Haus8 [SID363551698] → GFP, % of control = 55.5; viability (ATP), % of control = 72.4
Haus8 [SID363559303] → GFP, % of control = 114; viability (ATP), % of control = 87.8
Xylt2 [SID363570636] → GFP, % of control = 81.1; viability (ATP), % of control = 98
Xylt2 [SID363579436] → GFP, % of control = 60.8; viability (ATP), % of control = 62.5
Xylt2 [SID363583308] → GFP, % of control = 76; viability (ATP), % of control = 96.8
Or52x1 [SID363544908] → GFP, % of control = 38.4; viability (ATP), % of control = 64.5
Or52x1 [SID363551236] → GFP, % of control = 60.6; viability (ATP), % of control = 40.4
Or52x1 [SID363557785] → GFP, % of control = 55.8; viability (ATP), % of control = 65.2
Chmp2b [SID363540751] → GFP, % of control = 133 (active); viability (ATP), % of control = 161
Chmp2b [SID363543202] → GFP, % of control = 70.6; viability (ATP), % of control = 102
Chmp2b [SID363552695] → GFP, % of control = 56.5; viability (ATP), % of control = 98.7
Srsf11 [SID363543926] → GFP, % of control = 83.2; viability (ATP), % of control = 80.7
Srsf11 [SID363551662] → GFP, % of control = 114; viability (ATP), % of control = 79.4
Srsf11 [SID363559267] → GFP, % of control = 70.2; viability (ATP), % of control = 81.1
Ccl4 [SID363582365] → GFP, % of control = 94.6; viability (ATP), % of control = 115
Ccl4 [SID363584125] → GFP, % of control = 38.1; viability (ATP), % of control = 60.8
